Data source: PubChem BioAssay AID652272 (Drosophila RNAi Screening Center, 2013)

- Assay: 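Genome-wide knock-down search for components of Hedgehog signalling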 (primary screen)
- Cell system: Drosophila clone 8 (Cl8) cells
- Reagent: long dsRNA against Drosophila genes
- Read-out: 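Plate reader light from a firefly reporter under a ptc promoter fragment that responds to Hedgehog, with Renilla light as transfection reference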
- Scale: firefly Hh reporter signal: higher = more ptc reporter light; Renilla reference signal: higher = more Renilla control light
- Active means: 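Called a hit if the two-replicate mean z-score lies below -2 or above +3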
- Meaning of the calls: active = hit: reporter lowered or raised; inactive = not a hit
The deposit covers about 21,000 reagents; shown is a random part of those with a known target gene and a result. In the full data, 503 (2.4%) are marked active. 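Raw plate light values, not normalised; calls rest on replicate z-scores that were not deposited; hits include reporter decreases as well as increases.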 Entries without a mark were called inactive. Names joined by + are all predicted targets of the reagent. Not given: the amount of reagent, the time to read-out.

The first 9 entries, to show the layout:
Gene,dsRNA,"firefly Hh reporter signal, replicate 1","firefly Hh reporter signal, replicate 2","firefly Hh reporter signal, replicate 3","Renilla reference signal, replicate 1","Renilla reference signal, replicate 2"
CG14342,DRSC00372,92257 (active),50486,,2689,1824
CG3679,DRSC19346,86021,83781,,1408,1156
Ccdc39 (Coiled-coil domain containing protein 39),DRSC12286,85920,1.14e5,,2001,2922
Neos (Neosin),DRSC11235,87344,97522,,3862,3765
CG2493,DRSC02707,57152,40537,,2784,1405
CG8188,DRSC20090,1.39e5,3.52e5,,5370,13355
lic (licorne),DRSC20347,1.10e5,59830,,3264,1740
CG46441,DRSC15561,1.70e5,1.27e5,,6749,5393
CG10543,DRSC04081,54131,52502,,1552,4631

Main list, from the first entry:
Gene,dsRNA,"firefly Hh reporter signal, replicate 1","firefly Hh reporter signal, replicate 2","firefly Hh reporter signal, replicate 3","Renilla reference signal, replicate 1","Renilla reference signal, replicate 2"
CG14342,DRSC00372,92257 (active),50486,,2689,1824
CG3679,DRSC19346,86021,83781,,1408,1156
Ccdc39 (Coiled-coil domain containing protein 39),DRSC12286,85920,1.14e5,,2001,2922
Neos (Neosin),DRSC11235,87344,97522,,3862,3765
CG2493,DRSC02707,57152,40537,,2784,1405
CG8188,DRSC20090,1.39e5,3.52e5,,5370,13355
lic (licorne),DRSC20347,1.10e5,59830,,3264,1740
CG46441,DRSC15561,1.70e5,1.27e5,,6749,5393
CG10543,DRSC04081,54131,52502,,1552,4631
CG11095,DRSC19375,1.04e5,97800,,2397,2532
fau,DRSC12816,1.52e5,,,3193,
fau,DRSC12817,1.85e5,,,3792,
fau,DRSC16943,1.29e5,93564,,5328,3862
fau,DRSC16944,52951,1.36e5,,1735,3696
fau,DRSC16945,1.20e5,4.76e5,1.91e5,2112,2841
Efr (ER GDP-fucose transporter),DRSC18322,61872,2.07e5,,2173,7946
oxt (peptide O-xylosyltransferase),DRSC08522,1.08e5,1.02e5,,4896,4304
RhoGAP100F (Rho GTPase activating protein at 100F),DRSC15409,66037,61641,,1826,2115
rho-4 (rhomboid-4),DRSC19761,1.49e5,1.11e5,,3213,2827
rho-4 (rhomboid-4),DRSC19762,82432,2.72e5,,2780,10965
His2B:CG33870 + His2B:CG33868 + His2B:CG33882 + 21 more,DRSC03757,22613,14324,,681,1287
CG16762,DRSC08493,1.05e5,59611,,3444,4928
Adsl (Adenylosuccinate lyase),DRSC15500,93463,73189,,3718,2776
CG14367,DRSC14829,90148,1.02e5,,1813,2712
Bka (Bekka),DRSC02757,81130,37001,,2144,4155
CCT2 (Chaperonin containing TCP1 subunit 2),DRSC18415,63685,69808,,2144,1944
CG11262,DRSC09831,30816,29261,46411,2986,3232
CycG (Cyclin G),DRSC14324,1.10e5,72288,,2618,2666
CG10969,DRSC09811,33040,39316,59645,5168,4022
CG15740,DRSC19706,39255,32112,,2583,716
rut (rutabaga),DRSC20367,22496 (active),31954,,1808,1421
Ir20a (Ionotropic receptor 20a),DRSC20506,48934,2.14e5,,1747,9168
CG34409,DRSC14577,68886,1.25e5,,1768,3011
pont (pontin),DRSC17029,95600 (active),1.43e5,,1801,2537
Cyp310a1 (Cytochrome P450 310a1),DRSC03301,79127,68760,,3443,2896
CG8665,DRSC03098,1.04e5,74167,,2368,5930
CG18659,DRSC06784,87905,57056,,2148,4624
CG13488,DRSC04133,74530,63920,,1286,5248
MED26 (Mediator complex subunit 26),DRSC17126,3.84e5,1.63e5,,15994,3016
MED26 (Mediator complex subunit 26),DRSC17147,69728,1.93e5,,1648,5808
MED26 (Mediator complex subunit 26),DRSC17148,98328,65232,,2043,1645
CG14511,DRSC14863,67489,92308,,1704,2384
CG1418,DRSC06447,1.05e5,51144,,2634,4179
Naa60 (N(alpha)-acetyltransferase 60),DRSC10301,31570,39814,52496,4092,3560
Jhbp2 (Juvenile hormone binding protein 2),DRSC12292,1.14e5,1.10e5,,4993,2263
CG15429,DRSC00444,88868,53122,,1187,5290
CG13053,DRSC09934,1.11e5,,,3814,3539
Fit2 (Fermitin 2),DRSC10908,78841,76404,,3621,3043
St2 (Sulfotransferase 2),DRSC15142,1.45e5,1.88e5,,4455,4836
CG5757,DRSC06951,1.55e5,1.14e5,,7399,5400
CG34304 (retired record),DRSC12810,1.69e5,,,2780,
CR18275 + CG13373,DRSC17900,1.05e5,1.76e5,,2945,7041
Cen (Centrocortin),DRSC02704,1.24e5,64256,,4521,2209
Gr22b (Gustatory receptor 22b),DRSC20911,4.52e5,2.78e5,,26400,5897
Rab14,DRSC03403,1.11e5,57089,,4646,3136
Nepl9 (Neprilysin-like 9),DRSC02255,98205,56327,,2517,4960
PGRP-SD (Peptidoglycan recognition protein SD),DRSC10856,36443,57165,,4349,4021
VhaAC45 (Vacuolar H[+] ATPase AC45 accessory subunit),DRSC07058,62859,61805,,2502,1900
spn-E (spindle E),DRSC17064,79414,85792,,1540,2483
sad (shadow),DRSC16630,91770,1.36e5,,3429,3530
drn + CG43675,DRSC15147,1.32e5,1.07e5,,4352,2901
bib (big brain),DRSC03496,98594,44052,,4225,2057
Cyp309a1 (Cytochrome P450 309a1),DRSC00747,89345,94445,,2498,2229
Moca-cyp,DRSC15364,1.10e5,1.34e5,,1405,4049
Hr83 (Hormone receptor 83),DRSC12521,64004,85879,,2112,2464
Ulp1,DRSC19339,1.69e5,99056,,4160,2476
"Dnah3 (dynein, axonemal, heavy chain 3)",DRSC08130,1.39e5,3.48e5,,4117,13954
"Dnah3 (dynein, axonemal, heavy chain 3)",DRSC08513,39691,72605,,4341,5152
CG42591,DRSC08905,1.26e5,2.47e5,,3225,9280
Cyp4d2 (Cytochrome P450 4d2),DRSC18458,1.07e5,88483,,2480,2771
CG34002,DRSC09512,6.19e5,3.19e5,1.32e5,5501,7906
dpr2 (defective proboscis extension response 2),DRSC02370,1.18e5,86458,,3353,6756
dpr2 (defective proboscis extension response 2),DRSC02371,1.21e5,1.05e5,,2875,7035
